The values that follow come from publication PMC10904051.

By UniProt entry, the sequences of proteins in these tests, tags left out.
UniProt P54252: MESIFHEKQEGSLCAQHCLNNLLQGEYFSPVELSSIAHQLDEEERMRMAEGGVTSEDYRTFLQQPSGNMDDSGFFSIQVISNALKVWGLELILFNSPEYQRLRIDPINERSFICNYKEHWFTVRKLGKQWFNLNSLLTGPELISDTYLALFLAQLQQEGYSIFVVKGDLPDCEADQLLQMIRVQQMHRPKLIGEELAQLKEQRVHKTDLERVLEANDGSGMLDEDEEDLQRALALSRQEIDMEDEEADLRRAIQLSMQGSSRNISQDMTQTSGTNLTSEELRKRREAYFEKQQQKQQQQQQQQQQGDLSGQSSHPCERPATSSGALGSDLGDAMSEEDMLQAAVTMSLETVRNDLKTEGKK
UniProt Q9CVD2: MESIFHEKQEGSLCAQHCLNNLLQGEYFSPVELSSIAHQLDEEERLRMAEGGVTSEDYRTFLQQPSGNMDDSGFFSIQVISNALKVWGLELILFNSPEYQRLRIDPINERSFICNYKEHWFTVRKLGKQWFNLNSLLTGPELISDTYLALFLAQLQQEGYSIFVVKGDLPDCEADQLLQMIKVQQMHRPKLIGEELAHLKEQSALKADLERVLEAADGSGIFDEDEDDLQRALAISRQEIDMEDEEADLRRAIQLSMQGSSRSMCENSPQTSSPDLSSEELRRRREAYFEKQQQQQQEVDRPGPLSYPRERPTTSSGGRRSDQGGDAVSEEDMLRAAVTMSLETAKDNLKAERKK
UniProt P04150: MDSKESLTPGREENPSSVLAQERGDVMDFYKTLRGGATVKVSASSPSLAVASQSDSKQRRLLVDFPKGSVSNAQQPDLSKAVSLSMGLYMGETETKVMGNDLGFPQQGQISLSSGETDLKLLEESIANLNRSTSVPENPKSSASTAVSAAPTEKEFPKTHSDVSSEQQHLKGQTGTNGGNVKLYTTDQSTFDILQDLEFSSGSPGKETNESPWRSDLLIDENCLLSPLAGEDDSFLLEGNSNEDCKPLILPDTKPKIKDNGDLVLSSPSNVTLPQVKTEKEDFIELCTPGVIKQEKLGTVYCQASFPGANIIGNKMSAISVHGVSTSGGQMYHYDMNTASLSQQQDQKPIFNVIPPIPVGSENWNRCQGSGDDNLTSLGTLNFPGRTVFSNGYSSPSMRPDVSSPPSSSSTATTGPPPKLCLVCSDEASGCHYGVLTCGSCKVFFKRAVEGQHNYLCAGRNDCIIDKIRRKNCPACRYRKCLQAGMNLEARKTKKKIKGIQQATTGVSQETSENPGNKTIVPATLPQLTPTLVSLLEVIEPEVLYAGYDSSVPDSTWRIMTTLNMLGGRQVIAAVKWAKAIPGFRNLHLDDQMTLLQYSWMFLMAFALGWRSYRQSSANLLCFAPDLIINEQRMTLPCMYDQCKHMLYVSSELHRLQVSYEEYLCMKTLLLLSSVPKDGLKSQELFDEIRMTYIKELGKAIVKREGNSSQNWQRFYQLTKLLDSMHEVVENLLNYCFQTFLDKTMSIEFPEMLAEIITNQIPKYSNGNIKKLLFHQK
UniProt P06537: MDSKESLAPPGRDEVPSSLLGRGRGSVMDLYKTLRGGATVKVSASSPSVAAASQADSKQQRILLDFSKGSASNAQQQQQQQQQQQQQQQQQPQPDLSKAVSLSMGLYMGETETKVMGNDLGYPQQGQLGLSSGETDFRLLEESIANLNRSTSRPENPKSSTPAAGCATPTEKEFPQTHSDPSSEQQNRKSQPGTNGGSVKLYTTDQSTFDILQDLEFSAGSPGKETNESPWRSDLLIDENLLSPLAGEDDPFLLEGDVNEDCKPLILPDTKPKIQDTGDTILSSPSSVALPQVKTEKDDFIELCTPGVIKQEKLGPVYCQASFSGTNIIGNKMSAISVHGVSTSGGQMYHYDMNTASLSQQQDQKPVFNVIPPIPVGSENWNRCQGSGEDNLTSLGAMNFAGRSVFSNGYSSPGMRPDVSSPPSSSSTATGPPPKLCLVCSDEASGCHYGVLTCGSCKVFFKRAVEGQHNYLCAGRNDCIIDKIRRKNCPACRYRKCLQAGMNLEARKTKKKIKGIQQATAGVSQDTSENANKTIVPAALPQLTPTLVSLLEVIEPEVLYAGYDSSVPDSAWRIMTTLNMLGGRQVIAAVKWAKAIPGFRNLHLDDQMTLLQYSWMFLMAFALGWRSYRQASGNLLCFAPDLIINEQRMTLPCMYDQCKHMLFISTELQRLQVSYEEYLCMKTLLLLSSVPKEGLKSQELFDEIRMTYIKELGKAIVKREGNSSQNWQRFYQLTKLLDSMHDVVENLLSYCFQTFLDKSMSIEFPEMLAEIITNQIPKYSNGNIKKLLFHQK

For test [1], the target named is ataxin-3 (ATXN3), endogenous, SH-SY5Y cells (human (endogenous in SH-SY5Y)) (UniProt P54252). Kind of test: proximity ligation; Duolink PLA in fixed, permeabilized SH-SY5Y cells; mouse anti-ATXN3 1H9 and rabbit anti-GR; controls: no primary antibodies, ATXN3 knock-down cells.
Test [2] deals with ataxin-3 (ATXN3), endogenous, mouse brain (mouse (endogenous in mouse brain)) (UniProt Q9CVD2). In words: co-IP; Dynabeads coupled with rabbit anti-ATXN3 (anti-MJD, MJD1-1) incubated with 2 mg lysate of cerebellum and brainstem of WT mice, 4°C, 16 h; lysis buffer 50 mM Tris-HCl, 150 mM NaCl, 1 mM EDTA, 10% glycerol, 1% NP-40; blot for GR and ATXN3 (1H9); rabbit IgG isotype control.

No constants are given. Whether binding was seen depends on the method and setting. In cells and extracts the contact can be indirect. Some binding calls cover weakened binding; strength is not graded here.

As for “glucocorticoid receptor (GR), endogenous, SH-SY5Y cells (from UniProt P04150 1-777)”, the binding result in test [1] is listed as “binds”. As to “glucocorticoid receptor (GR), endogenous, mouse brain (from UniProt P06537 1-792)”, the binding entry in test [2] was “binds”.
